Measurements reported in paper PMC11508090.

T1: Msh4-TurboID (S. cerevisiae) (UniProt P40965)
T1 sequence: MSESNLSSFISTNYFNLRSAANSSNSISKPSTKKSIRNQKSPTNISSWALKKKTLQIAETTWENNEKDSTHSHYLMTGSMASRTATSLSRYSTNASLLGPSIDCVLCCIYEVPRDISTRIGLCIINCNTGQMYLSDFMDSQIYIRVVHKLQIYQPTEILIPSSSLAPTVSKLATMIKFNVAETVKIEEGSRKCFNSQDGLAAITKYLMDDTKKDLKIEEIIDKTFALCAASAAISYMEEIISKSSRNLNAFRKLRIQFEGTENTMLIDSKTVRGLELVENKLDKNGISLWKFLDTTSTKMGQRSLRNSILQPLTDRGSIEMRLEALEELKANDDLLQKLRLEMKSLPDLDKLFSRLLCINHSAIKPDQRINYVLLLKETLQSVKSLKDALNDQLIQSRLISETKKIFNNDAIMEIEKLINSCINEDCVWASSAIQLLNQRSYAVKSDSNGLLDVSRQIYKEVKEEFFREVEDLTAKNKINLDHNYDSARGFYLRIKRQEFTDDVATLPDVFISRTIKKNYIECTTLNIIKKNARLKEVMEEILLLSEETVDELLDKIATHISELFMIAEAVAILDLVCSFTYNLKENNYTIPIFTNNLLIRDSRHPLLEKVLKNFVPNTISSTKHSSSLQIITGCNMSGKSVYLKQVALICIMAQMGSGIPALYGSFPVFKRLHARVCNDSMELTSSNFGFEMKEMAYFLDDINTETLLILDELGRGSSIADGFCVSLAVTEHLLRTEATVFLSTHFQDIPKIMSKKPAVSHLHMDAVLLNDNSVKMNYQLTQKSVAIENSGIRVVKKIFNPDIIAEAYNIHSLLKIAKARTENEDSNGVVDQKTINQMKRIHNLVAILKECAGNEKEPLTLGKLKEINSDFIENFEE

T2: Msh5-TurboID (S. cerevisiae) (UniProt Q12175)
T2 sequence: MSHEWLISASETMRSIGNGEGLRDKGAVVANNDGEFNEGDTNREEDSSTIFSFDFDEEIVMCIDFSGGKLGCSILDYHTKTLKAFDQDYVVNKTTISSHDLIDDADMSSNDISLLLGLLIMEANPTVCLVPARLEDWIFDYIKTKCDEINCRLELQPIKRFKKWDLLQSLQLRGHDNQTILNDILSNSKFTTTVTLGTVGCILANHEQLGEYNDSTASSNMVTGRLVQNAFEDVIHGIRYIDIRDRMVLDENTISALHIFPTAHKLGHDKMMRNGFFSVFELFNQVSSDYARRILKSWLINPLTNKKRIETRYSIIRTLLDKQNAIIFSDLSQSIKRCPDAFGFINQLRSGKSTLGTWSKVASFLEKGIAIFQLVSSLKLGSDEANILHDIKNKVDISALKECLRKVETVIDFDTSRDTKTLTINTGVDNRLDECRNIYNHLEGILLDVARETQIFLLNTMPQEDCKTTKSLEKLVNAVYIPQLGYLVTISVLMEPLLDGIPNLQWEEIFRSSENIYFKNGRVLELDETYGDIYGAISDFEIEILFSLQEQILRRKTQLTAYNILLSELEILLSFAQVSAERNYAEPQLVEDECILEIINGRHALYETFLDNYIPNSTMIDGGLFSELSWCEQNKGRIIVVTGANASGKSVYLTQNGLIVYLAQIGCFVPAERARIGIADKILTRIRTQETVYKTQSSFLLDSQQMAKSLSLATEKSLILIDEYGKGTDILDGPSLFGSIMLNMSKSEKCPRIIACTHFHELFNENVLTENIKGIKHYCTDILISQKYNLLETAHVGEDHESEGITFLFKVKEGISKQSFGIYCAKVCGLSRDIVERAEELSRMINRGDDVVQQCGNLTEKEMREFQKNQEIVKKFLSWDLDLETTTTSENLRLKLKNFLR

T3: Zip2-TurboID (S. cerevisiae) (UniProt P53061)
T3 sequence: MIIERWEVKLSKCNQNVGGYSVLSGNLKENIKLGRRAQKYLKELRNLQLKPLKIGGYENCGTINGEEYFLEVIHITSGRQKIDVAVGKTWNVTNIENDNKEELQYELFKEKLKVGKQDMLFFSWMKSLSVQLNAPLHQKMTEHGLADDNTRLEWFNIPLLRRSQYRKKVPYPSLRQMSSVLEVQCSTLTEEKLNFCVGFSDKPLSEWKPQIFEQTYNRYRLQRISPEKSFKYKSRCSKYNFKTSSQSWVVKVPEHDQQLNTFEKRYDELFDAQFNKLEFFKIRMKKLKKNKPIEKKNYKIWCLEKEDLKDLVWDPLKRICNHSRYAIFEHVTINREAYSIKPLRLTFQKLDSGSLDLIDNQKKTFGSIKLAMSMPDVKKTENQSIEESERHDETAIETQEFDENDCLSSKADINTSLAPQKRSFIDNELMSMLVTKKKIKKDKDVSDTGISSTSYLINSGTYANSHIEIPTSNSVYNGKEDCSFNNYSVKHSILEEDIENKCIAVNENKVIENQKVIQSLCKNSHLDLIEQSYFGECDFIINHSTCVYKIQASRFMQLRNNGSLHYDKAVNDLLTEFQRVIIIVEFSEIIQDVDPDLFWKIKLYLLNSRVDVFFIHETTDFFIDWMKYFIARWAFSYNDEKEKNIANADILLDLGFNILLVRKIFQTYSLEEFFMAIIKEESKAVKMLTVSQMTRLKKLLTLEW


Experiments:
[1] = target: T1, Msh4-TurboID (S. cerevisiae); assay: proximity labelling; eleven TurboID fusion strains (ndt80, homozygous) and a no-TurboID control, ~24 h sporulation, two replicates; TCA extract, streptavidin-sepharose pull-down, trypsin, UPLC-MS/MS; targets = in both replicates and in neither control
[2] = target: Zip4iTurboID (S. cerevisiae); assay: as above
[3] = target: Zip4-TurboID (S. cerevisiae); assay: as above
[4] = target: T2, Msh5-TurboID (S. cerevisiae); assay: as above
[5] = target: Zip4iTurboID (S. cerevisiae); assay: proximity labelling; TurboID fusion allele (homozygous, or heterozygous where said) in ndt80 diploid cells, 24 h in sporulation medium, endogenous biotin; TCA extract, 8% or 12% SDS-PAGE, streptavidin:HRP blot; also done in mutant backgrounds in which the labelling was kept
[6] = target: T3, Zip2-TurboID (S. cerevisiae); assay: as above

binding [2]	binding [3]	Binder	further results
binds	binds	Zip2 (protein, UniProt P53061 1-704) MIIERWEVKLSKCNQNVGGYSVLSGNLKENIKLGRRAQKYLKELRNLQLKPLKIGGYENCGTINGEEYFLEVIHITSGRQKIDVAVGKTWNVTNIENDNKEELQYELFKEKLKVGKQDMLFFSWMKSLSVQLNAPLHQKMTEHGLADDNTRLEWFNIPLLRRSQYRKKVPYPSLRQMSSVLEVQCSTLTEEKLNFCVGFSDKPLSEWKPQIFEQTYNRYRLQRISPEKSFKYKSRCSKYNFKTSSQSWVVKVPEHDQQLNTFEKRYDELFDAQFNKLEFFKIRMKKLKKNKPIEKKNYKIWCLEKEDLKDLVWDPLKRICNHSRYAIFEHVTINREAYSIKPLRLTFQKLDSGSLDLIDNQKKTFGSIKLAMSMPDVKKTENQSIEESERHDETAIETQEFDENDCLSSKADINTSLAPQKRSFIDNELMSMLVTKKKIKKDKDVSDTGISSTSYLINSGTYANSHIEIPTSNSVYNGKEDCSFNNYSVKHSILEEDIENKCIAVNENKVIENQKVIQSLCKNSHLDLIEQSYFGECDFIINHSTCVYKIQASRFMQLRNNGSLHYDKAVNDLLTEFQRVIIIVEFSEIIQDVDPDLFWKIKLYLLNSRVDVFFIHETTDFFIDWMKYFIARWAFSYNDEKEKNIANADILLDLGFNILLVRKIFQTYSLEEFFMAIIKEESKAVKMLTVSQMTRLKKLLTLEW	binding [1]: binds; binding [4]: binds
no binding	no binding	Spo16 (protein, UniProt P17122 1-198) MSEFFWDVQKIQEISNVEEHSVVKCVTVNTSRLISQLNEELQDEESGVNFIVTQLQLLINNVYEKIQKSPGVPAHRSLMINLNFTRLKFSIAYWDILLERSLDLINGPSKTGARYFITEVTPVDRSRYVENNQYFLAFKANQRLTRNSVDMDEFIDFEILIKQIIFDLFKKNGIPDQDFEAILSRFHNLESLVVAFNE	
binds	binds	Msh5 (protein, UniProt Q12175 1-901) MSHEWLISASETMRSIGNGEGLRDKGAVVANNDGEFNEGDTNREEDSSTIFSFDFDEEIVMCIDFSGGKLGCSILDYHTKTLKAFDQDYVVNKTTISSHDLIDDADMSSNDISLLLGLLIMEANPTVCLVPARLEDWIFDYIKTKCDEINCRLELQPIKRFKKWDLLQSLQLRGHDNQTILNDILSNSKFTTTVTLGTVGCILANHEQLGEYNDSTASSNMVTGRLVQNAFEDVIHGIRYIDIRDRMVLDENTISALHIFPTAHKLGHDKMMRNGFFSVFELFNQVSSDYARRILKSWLINPLTNKKRIETRYSIIRTLLDKQNAIIFSDLSQSIKRCPDAFGFINQLRSGKSTLGTWSKVASFLEKGIAIFQLVSSLKLGSDEANILHDIKNKVDISALKECLRKVETVIDFDTSRDTKTLTINTGVDNRLDECRNIYNHLEGILLDVARETQIFLLNTMPQEDCKTTKSLEKLVNAVYIPQLGYLVTISVLMEPLLDGIPNLQWEEIFRSSENIYFKNGRVLELDETYGDIYGAISDFEIEILFSLQEQILRRKTQLTAYNILLSELEILLSFAQVSAERNYAEPQLVEDECILEIINGRHALYETFLDNYIPNSTMIDGGLFSELSWCEQNKGRIIVVTGANASGKSVYLTQNGLIVYLAQIGCFVPAERARIGIADKILTRIRTQETVYKTQSSFLLDSQQMAKSLSLATEKSLILIDEYGKGTDILDGPSLFGSIMLNMSKSEKCPRIIACTHFHELFNENVLTENIKGIKHYCTDILISQKYNLLETAHVGEDHESEGITFLFKVKEGISKQSFGIYCAKVCGLSRDIVERAEELSRMINRGDDVVQQCGNLTEKEMREFQKNQEIVKKFLSWDLDLETTTTSENLRLKLKNFLR	
		Ecm11-3xFLAG (protein, UniProt Q04110 1-302) MTVIKTEPTTEVTLYSPPSKESLSKDDAHRKKQNNKPPSSINSRSGPNKHKLAAKAPEKKINNTDKQDLSAFLLNPSLIVKPSESKKKENIVAYNDTPGIKTEHTAFQPLTPISKKRALKEKAASEKCDSFDLSRDEKPYIQKKSKTLSSVTEINSSEYKLSLNGENTSSPAKEKSQEPIENPGSYQKTRNYLFEKPDPLDTCLQDYSSMLPSNVAEEDQEYFISVADSTLEEWTNKGQEIIDQQFQLYQEIIKKRIELSYKFKGIISVINDRADALEEQGQQLEGKIKKVKTLANEILNII	binding [5]: no binding
		Zip3iMYC (protein, UniProt Q06032 1-482) MGGYLAIVFIPQTNTKSMREKKQKCLKQVRRLSLISPKKYIMPDSIFEQPFVYCGVCHRRTSHGDPLRLTSCAHILCSQHSPLTSKVCPICRSSDISIINLVESKQLPTDIRIFFEPLPPLLESLYNVSQFQLNGLSKQCQYYQNHCLKLREKCARQQQLLYQAKIELDSMAILKKRIQELESVLNHNNVSSMSVGVLPTRNSHQNHYQPPPTVDLTVDDNSLEEFEAKSFIKKLKKNSSLRNSSKNNNGTVTPSTSGRVNKNQPLFMETLNNPNRNSIPPPGMNPNANSNLPNISTIAESTNLNRFSFSPVRVAKGFDGKLPNLDILTNNGSVSSKNISRLSSASLQPSSPLSSSSNRLILPNSNLKELHHSNTPLTSTSTQFPSALEKLKITRKRNNTISGSNRITHNLSSHVRSSGLAFSSSSNSLQQSKLPKSNILKRSNSTQQLTNTHLKSDNHLPPRSSNTVLGSSKKNNKFRRIR	binding [6]: binds

These are yes or no findings as the source states them, for the method shown. In cells and extracts the contact can be indirect. A yes stands for co-enrichment or nearness to the bait. Other partners may have been found. For some of these results: A no says only that the protein was not detected with the bait. For some of these results: Where a sequence is shown, tags or fusion partners need not be part of it.
